In paper PMC10288633:
Results are given in words; binding and its absence hold for the method and conditions named. In cells and extracts the contact can be indirect. Some results given as binding are weak or reduced against the parent protein; the word gives no strength.

The chains behind the UniProt entries cited, without tags or fusion partners.
UniProt Q9UBB5: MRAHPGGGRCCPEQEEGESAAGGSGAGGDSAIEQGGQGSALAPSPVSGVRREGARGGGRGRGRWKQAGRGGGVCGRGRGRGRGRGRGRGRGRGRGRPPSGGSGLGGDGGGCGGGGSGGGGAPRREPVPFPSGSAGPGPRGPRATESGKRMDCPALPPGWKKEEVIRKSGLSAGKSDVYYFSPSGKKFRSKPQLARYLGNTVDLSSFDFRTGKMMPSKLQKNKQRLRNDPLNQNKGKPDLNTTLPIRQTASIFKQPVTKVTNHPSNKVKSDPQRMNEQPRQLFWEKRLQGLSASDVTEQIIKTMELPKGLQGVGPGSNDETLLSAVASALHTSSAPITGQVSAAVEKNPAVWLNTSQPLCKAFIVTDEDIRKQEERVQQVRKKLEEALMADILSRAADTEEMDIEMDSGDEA
UniProt Q9H165: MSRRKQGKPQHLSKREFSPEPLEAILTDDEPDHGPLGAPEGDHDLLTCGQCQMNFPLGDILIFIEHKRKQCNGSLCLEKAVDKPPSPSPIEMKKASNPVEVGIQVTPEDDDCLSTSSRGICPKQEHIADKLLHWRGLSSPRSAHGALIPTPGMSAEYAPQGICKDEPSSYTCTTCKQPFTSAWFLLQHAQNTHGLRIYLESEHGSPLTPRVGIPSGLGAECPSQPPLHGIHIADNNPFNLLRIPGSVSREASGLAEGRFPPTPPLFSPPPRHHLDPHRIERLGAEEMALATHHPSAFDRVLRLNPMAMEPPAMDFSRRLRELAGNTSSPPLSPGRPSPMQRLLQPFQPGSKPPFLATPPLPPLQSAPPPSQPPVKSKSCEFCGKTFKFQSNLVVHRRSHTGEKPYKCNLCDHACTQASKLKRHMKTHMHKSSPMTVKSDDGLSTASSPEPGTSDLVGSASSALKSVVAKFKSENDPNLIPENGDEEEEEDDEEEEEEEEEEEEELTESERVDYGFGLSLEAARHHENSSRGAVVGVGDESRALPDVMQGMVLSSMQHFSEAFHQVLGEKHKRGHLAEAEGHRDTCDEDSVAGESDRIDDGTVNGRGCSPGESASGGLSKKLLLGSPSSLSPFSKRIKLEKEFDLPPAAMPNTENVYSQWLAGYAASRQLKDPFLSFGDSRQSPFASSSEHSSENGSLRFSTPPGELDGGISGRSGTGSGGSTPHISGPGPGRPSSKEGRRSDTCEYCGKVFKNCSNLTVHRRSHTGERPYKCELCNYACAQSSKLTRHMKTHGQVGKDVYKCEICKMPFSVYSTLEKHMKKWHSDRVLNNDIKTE
UniProt O14744: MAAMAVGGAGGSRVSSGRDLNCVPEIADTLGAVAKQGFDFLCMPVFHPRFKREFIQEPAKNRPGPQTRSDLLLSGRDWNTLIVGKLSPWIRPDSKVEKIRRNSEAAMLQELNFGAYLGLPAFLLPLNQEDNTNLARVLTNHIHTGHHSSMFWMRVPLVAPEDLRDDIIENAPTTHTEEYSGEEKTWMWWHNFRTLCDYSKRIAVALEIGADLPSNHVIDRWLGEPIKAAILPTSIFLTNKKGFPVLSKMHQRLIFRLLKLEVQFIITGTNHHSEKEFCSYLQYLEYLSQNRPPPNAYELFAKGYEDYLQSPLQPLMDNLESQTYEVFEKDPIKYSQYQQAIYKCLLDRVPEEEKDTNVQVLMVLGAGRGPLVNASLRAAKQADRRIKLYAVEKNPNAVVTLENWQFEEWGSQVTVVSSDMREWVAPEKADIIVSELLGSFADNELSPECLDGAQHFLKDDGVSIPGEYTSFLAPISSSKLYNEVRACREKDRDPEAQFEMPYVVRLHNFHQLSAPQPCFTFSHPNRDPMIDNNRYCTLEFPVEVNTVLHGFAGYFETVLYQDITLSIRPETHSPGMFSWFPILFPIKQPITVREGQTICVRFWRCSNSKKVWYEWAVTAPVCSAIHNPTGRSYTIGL

How the values were obtained:
[1] = target: endogenous MBD2 (human (endogenous in HUDEP-2)) (UniProt Q9UBB5); test: co-IP; reciprocal immunoprecipitation of endogenous MBD2, BCL11A and PRMT5 in parental HUDEP-2 cells, western blot
MBD2a-TAPtag = MBD2a-TAPtag (UniProt Q9UBB5); test: co-IP; Strep-Tactin immunoprecipitation of MBD2a-TAPtag or MBD2b-TAPtag from HUDEP-2 cells, western blot for BCL11A and PRMT5
[2] = target: BCL11A (human (endogenous in HUDEP-2)) (UniProt Q9H165); test: co-IP; reciprocal immunoprecipitation of endogenous MBD2, BCL11A and PRMT5 in parental HUDEP-2 cells, western blot

| binding [1] | binding (MBD2a-TAPtag) | binding [2] | Substance |
| --- | --- | --- | --- |
| binds | binds | – | BCL11A (from UniProt Q9H165 1-835) |
| binds | binds | binds | PRMT5 (from UniProt O14744 1-637) (enzyme) |
